According to article doi:10.1101/437947:
No constants are given. Whether binding was seen depends on the method and setting. In cells and extracts the contact can be indirect. Some results given as binding are weak or reduced against the parent protein; the word gives no strength.

Amino acid sequences for entries named in this document (tags omitted).
UniProt P83949, whole entry: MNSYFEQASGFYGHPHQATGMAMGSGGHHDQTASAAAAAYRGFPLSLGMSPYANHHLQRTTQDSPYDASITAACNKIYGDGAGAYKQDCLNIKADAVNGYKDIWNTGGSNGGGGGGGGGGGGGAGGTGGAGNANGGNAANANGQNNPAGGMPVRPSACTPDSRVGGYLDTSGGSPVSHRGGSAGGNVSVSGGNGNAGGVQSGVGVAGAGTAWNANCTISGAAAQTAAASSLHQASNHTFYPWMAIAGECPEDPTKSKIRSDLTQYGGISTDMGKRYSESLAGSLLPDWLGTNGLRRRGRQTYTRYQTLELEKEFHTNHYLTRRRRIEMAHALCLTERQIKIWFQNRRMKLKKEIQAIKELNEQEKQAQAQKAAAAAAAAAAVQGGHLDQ
UniProt Q8ST83, whole entry: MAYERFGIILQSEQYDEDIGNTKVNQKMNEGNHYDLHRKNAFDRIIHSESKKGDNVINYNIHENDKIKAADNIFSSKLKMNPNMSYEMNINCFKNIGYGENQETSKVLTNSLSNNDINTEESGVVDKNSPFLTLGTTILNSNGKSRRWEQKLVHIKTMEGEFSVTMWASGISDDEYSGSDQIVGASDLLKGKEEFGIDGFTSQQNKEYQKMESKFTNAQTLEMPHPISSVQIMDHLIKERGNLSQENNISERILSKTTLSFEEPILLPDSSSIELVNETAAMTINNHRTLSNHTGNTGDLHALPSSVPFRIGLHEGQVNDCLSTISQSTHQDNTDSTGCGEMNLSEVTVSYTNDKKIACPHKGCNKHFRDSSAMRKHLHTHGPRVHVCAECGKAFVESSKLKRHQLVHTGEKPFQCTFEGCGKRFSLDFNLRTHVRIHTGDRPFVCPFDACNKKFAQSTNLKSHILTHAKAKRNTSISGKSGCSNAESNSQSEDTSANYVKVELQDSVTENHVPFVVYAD

Assays:
[1] = target: GFP-Ubx WT (Ultrabithorax, exogenous GFP fusion protein) (Drosophila) (UniProt P83949); experiment: co-IP
[2] = target: endogenous GFP-Ubx fusion protein (GFP-Ubx^3.005 line) (Drosophila (endogenous locus in embryos)) (UniProt P83949); experiment: co-IP

| binding [1] | binding [2] | Substance |
| --- | --- | --- |
| binds | – | HA-Pho (Pleiohomeotic) (from UniProt Q8ST83 1-520) |
| – | binds | Pleiohomeotic (Pho), endogenous (from UniProt Q8ST83 1-520) |
